Data as given in paper PMC10764673.
No constants are given. Whether binding was seen depends on the method and setting. Binding can be weak; no strength is given. For some of these results: In cells and extracts the contact can be indirect. For some of these results: Sequences can lack the tags named with a protein.

Columns and labels:
[1] = molecular target: OsMPK7 (rice (Oryza sativa)); assay: two-hybrid; OsMPK7 in pGBKT7 as bait, preys in pGADT7; growth on QD (quadruple-dropout medium lacking Ade, His, Leu and Trp), DD as control
[2] = molecular target: OsMPK7 (nLUC fusion) (rice (Oryza sativa)); assay: split reporter; luciferase complementation in N. benthamiana leaves: nLUC-OsMPK7 co-injected with each cLUC fusion, 48 h, D-luciferin, chemiluminescence imaging

Row | binding [1] | binding [2] | Binder
1 | binds |  | OsPYL5 (protein, UniProt Q6I5C3 1-209) MVGLVGGGGWRVGDDAAGGGGGGAVAAGAAAAAEAEHMRRLHSHAPGEHQCSSALVKHIKAPVHLVWSLVRSFDQPQRYKPFVSRCVVRGGDLEIGSVREVNVKTGLPATTSTERLELLDDDEHILSVKFVGGDHRLRNYSSIVTVHPESIDGRPGTLVIESFVVDVPDGNTKDETCYFVEAVIKCNLTSLAEVSERLAVQSPTSPLEQ
2 | no binding |  | OsSAPK8 (protein, UniProt Q7Y0B9 1-371) MAAAGAGAGAPDRAALTVGPGMDMPIMHDSDRYELVRDIGSGNFGVARLMRDRRTMELVAVKYIERGEKIDDNVQREIINHRSLKHPNIIRFKEVILTPTHLAIVMEYASGGELFERICKNVRFSEDEARYFFQQLISGVSYCHSMQVCHRDLKLENTLLDGSPAPRLKICDFGYSKSSVLHSQPKSTVGTPAYIAPEVLLKKEYDGKTADVWSCGVTLYVMVVGAYPFEDPEEPKNFRKTIQRILNVQYSIPENVDISPECRHLISRIFVGDPSLRITIPEIRSHGWFLKNLPADLMDDDSMSSQYEEPDQPMQTMDQIMQILTEATIPPACSRINHILTDGLDLDDDMDDLDSDSDIDVDSSGEIVYAM
3 |  | binds | OsPP2C50 (cLUC fusion) (protein, UniProt Q6L5H6 1-387) MAAAAAAAAICGEDETAARVGCTGEWAGGIERVDLGERKEAVAAAGAGKRSVYLMDCAPVWGCASTRGRSAEMEDASAAVPRFADVPVRLLASRRDLDALGLDADALRLPAHLFGVFDGHGGAEVANYCRERIHVVLSEELKRLGKNLGEMGEVDMKEHWDDVFTKCFQRVDDEVSGRVTRVVNGGGEVRSEPVTAENVGSTAVVALVCSSHVVVANCGDSRIVLCRGKEPVALSIDHKPDRKDERARIEAQGGKVIQWNGYRVSGILAMSRSIGDRYLKPFVIPKPEVMVVPRAKDDDCLILASDGLWDVVSNEEACKVARRQILLWHKNNGAASPLSDEGEGSTDPAAQAAADYLMRLALKKGSEDNITVIVVDLKPRKKLKNIS
4 | binds |  | OsPP2C50 (protein, UniProt Q6L5H6 1-387) MAAAAAAAAICGEDETAARVGCTGEWAGGIERVDLGERKEAVAAAGAGKRSVYLMDCAPVWGCASTRGRSAEMEDASAAVPRFADVPVRLLASRRDLDALGLDADALRLPAHLFGVFDGHGGAEVANYCRERIHVVLSEELKRLGKNLGEMGEVDMKEHWDDVFTKCFQRVDDEVSGRVTRVVNGGGEVRSEPVTAENVGSTAVVALVCSSHVVVANCGDSRIVLCRGKEPVALSIDHKPDRKDERARIEAQGGKVIQWNGYRVSGILAMSRSIGDRYLKPFVIPKPEVMVVPRAKDDDCLILASDGLWDVVSNEEACKVARRQILLWHKNNGAASPLSDEGEGSTDPAAQAAADYLMRLALKKGSEDNITVIVVDLKPRKKLKNIS
